{"sequences": {"note": "Chains of the proteins cited; added tags and fusions are not shown. Lines headed by an entry give the natural chain unless they say otherwise; changes in a name come on top.", "UniProt P30048": "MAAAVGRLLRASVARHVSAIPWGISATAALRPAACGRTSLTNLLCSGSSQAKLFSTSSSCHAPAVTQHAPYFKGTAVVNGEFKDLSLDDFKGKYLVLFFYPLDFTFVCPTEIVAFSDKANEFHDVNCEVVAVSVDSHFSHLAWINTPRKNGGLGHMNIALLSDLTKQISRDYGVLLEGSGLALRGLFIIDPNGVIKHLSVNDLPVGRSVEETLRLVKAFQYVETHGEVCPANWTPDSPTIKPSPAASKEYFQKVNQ"}, "source": "paper PMC8211793", "molecular_target": "T1, Flag-PHB, full-length (human) (UniProt P35232)", "T1 sequence": "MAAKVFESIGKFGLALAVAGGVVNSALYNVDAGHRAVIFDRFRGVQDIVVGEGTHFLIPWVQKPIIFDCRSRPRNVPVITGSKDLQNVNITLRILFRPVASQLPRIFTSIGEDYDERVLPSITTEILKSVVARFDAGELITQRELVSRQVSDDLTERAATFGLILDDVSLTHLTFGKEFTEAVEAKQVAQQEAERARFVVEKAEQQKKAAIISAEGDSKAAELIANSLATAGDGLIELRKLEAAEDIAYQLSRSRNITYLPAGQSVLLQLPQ", "assay": "co-IP; HEK293 cells co-transfected with HA-PRDX3 and full-length or truncated Flag-PHB for 48 h; NP-40 lysis buffer", "note": "No constants are given. Whether binding was seen depends on the method and setting. In cells and extracts the contact can be indirect. Binding calls can cover weak binding; strength is not graded here. Sequences can lack the tags named with a protein.", "data": [{"substance": "HA-PRDX3 (from UniProt P30048)", "values": [{"measurement": "binding", "result": "binds"}]}]}
